# Measurements taken from patent US11673892B2, “Bicyclic compounds for use as RIP1 kinase inhibitors” (Genentech, Inc., priority 2017, dated 2023).
# Chains of the proteins cited; added tags and fusions are not shown. Residues count along the entry.
# UniProt Q13546, 2-375 limits assumed: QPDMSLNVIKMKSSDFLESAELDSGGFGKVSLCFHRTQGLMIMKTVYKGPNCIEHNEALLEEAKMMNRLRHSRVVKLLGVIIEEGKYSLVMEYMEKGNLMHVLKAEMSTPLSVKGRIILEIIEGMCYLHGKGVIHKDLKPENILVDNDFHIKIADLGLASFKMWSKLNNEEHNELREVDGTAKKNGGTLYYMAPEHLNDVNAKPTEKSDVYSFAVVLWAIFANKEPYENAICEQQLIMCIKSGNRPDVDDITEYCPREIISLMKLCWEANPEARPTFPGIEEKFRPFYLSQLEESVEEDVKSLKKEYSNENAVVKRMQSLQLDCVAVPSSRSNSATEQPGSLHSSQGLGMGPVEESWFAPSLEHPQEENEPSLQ
# Structures were worked out from names or drawings and are uncertain.
# Molecular target: human RIP1 kinase domain (2-375) (Homo sapiens, UniProt Q13546)
# Test: RIP1 kinase inhibition biochemical assay (Transcreener ADP, fluorescence polarization)
# Details: Ki app (Morrison tight-binding fit); 50 nM enzyme, 50 uM ATP, 2 hours incubation
# Protocol: RIP1 Kinase Inhibition Assays (Biochemical Assay)
# The compounds of the present invention were tested for their capacity to inhibit RIP1K activity as described below.
# The ability of the receptor interacting protein kinase (RIPK1) to catalyze the hydrolysis of adenosine-5′-triphosphate (ATP) is monitored using the Transcreener ADP (adenosine-5′-diphosphate) assay (BellBrook Labs). Purified human RIP1 kinase domain (2-375) (50 nM) derived from a baculovirus-infected insect cell expression system is incubated with test compounds for 2 hours in 50 mM Hepes buffer (pH 7.5) containing 30 mM MgCl2, 1 mM dithiothreitol, 50 uM ATP, 0.002% Brij-35, and 0.5% dimethyl sulfoxide (DMSO). Reactions are quenched by the addition of 1× Bell Brooks Stop buffer B (20 mM Hepes (ph7.5), 40 mM ethylenediaminetetraacetic acid and 0.02% Brij-35) containing an additional 12 mM EDTA and 55 ug/mL ADP2 antibody and 4 nM ADP-AlexaFluor® 633 tracer. The tracer bound to the antibody is displaced by the ADP generated during the RIP1K reaction, which causes a decrease in fluorescence polarization that is measured by laser excitation at 633 nm with a FP microplate reader M1000. Fractional activity was plotted against test article concentration. […]
row,Compound,Ki
1,CCOCCc1nc2n(n1)[C@H](c1ccccc1)C[C@@H]2F,490 nM
2,"F[C@H]1C[C@@H](c2ccccc2)n2nc(-n3nnc4cnccc43)nc21 (single isomer, unassigned)",55 nM
